Source: PubChem BioAssay AID1224830 (NIAID, 2016)
Shown is a random part of about 18,000 reagents tested. Over the whole deposit, about 2,900 (16%) got an active call. 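Calls are made per well; low scores hint the gene aids the LPS response, high scores that it dampens it.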 Entries without a mark were called inactive. Repeated entries: four replicate wells of each siRNA pool.

Assay: 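Host factors that control LPS-induced TNF expression in human macrophages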 (primary screen)
Cell system: human THP-1 monocytic leukaemia cells, TNF dual-luciferase reporter clone, PMA-differentiated to macrophage-like cells
Reagent: siRNA pool against human genes, 50 nM
Time to read-out: LPS for 4 h, given about 3 days after siRNA transfection
Challenge: bacterial LPS (TLR4 ligand), 10 ng/ml
Measurement: 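Ratio of firefly to renilla light, scaled to the plate median and expressed as a robust z-score per replicate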
Direction: TNF reporter robust z-score: higher = stronger TNF reporter response to LPS
Hit rule: 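Each well counts as active if its z-score is over 2.8 or under -1.5; controls are left without a call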

The first 3 records, ahead of the listing:
no.	Target gene	TNF reporter robust z-score
1	BST1 (GeneID 683)	-1.77 (active)
2	BST1 (GeneID 683)	-1.43
3	BST1 (GeneID 683)	-1.81 (active)

The listing, repeating the preview:
no.	Target gene	TNF reporter robust z-score
1	BST1 (GeneID 683)	-1.77 (active)
2	BST1 (GeneID 683)	-1.43
3	BST1 (GeneID 683)	-1.81 (active)
4	BST1 (GeneID 683)	-0.88
5	PLAC8 (GeneID 51316)	-0.88
6	PLAC8 (GeneID 51316)	-0.92
7	PLAC8 (GeneID 51316)	-0.81
8	PLAC8 (GeneID 51316)	-0.67
9	TOP1 (GeneID 7150)	0.25
10	TOP1 (GeneID 7150)	1.03
11	TOP1 (GeneID 7150)	0.83
12	TOP1 (GeneID 7150)	1.4
13	DDT (GeneID 1652)	-0.25
14	DDT (GeneID 1652)	0.83
15	DDT (GeneID 1652)	1.03
16	DDT (GeneID 1652)	0.02
17	TSSK1B (GeneID 83942)	-0.31
18	TSSK1B (GeneID 83942)	-0.34
19	TSSK1B (GeneID 83942)	-0.38
20	TSSK1B (GeneID 83942)	-0.13
21	SUFU (GeneID 51684)	-1.32
22	SUFU (GeneID 51684)	-1.85 (active)
23	SUFU (GeneID 51684)	-1.11
24	SUFU (GeneID 51684)	-1.98 (active)
25	FMO3 (GeneID 2328)	-0.28
26	FMO3 (GeneID 2328)	0.6
27	FMO3 (GeneID 2328)	-0.37
28	FMO3 (GeneID 2328)	1.66
29	SNX24 (GeneID 28966)	0.77
30	SNX24 (GeneID 28966)	0.74
31	SNX24 (GeneID 28966)	0.76
32	SNX24 (GeneID 28966)	-1.05
33	GALNT18 (GeneID 374378)	0.72
34	GALNT18 (GeneID 374378)	0.71
35	GALNT18 (GeneID 374378)	-0.02
36	KCTD13 (GeneID 253980)	-1.42
37	KCTD13 (GeneID 253980)	1.09
38	KCTD13 (GeneID 253980)	1.7
39	KCTD13 (GeneID 253980)	2.15
40	TLR5 (GeneID 7100)	1.44
41	TLR5 (GeneID 7100)	-0.17
42	TLR5 (GeneID 7100)	0.53
43	TLR5 (GeneID 7100)	1.15
44	HEPN1 (GeneID 641654)	-0.74
45	HEPN1 (GeneID 641654)	-0.1
46	HEPN1 (GeneID 641654)	-0.67
47	HEPN1 (GeneID 641654)	0
